Measured values as given in PubChem BioAssay AID540303 (National Center for Advancing Translational Sciences (NCATS), 2011).
In all, about 330,000 compounds went through this assay and about 1,000 (0.3%) were called active. This list was built around the results that the source calls inconclusive (neither active nor inactive); the mix of calls is not that of the screen. The call rests on the fitted dose curve; in most records, active means well fitted inhibition curve with a large enough effect; inconclusive means small, poorly fitted or top-dose-only effect; inactive means no such curve, though single readings can be large or run the other way; tested in mouse RAW 264.7 cells. Potencies of inconclusive entries are doubtful fits and often do not repeat.

Experiment: qHTS for Inhibitors of Cell Surface uPA Generation; further: nearly all actives have a fitted effect of over 55% in size
Details: cell surface uPA generation assay; series mostly up to 38.3 µM
Method in brief: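 ATP-Lite luminescence in RAW 264.7 cells after 24 h of exposure to compound, tested up to 38.3 uM final in 1:5 steps. Raised ATP reflects inhibition of uPA-dependent LF delivery to the cytoplasm.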
Potency means the concentration at half of the fitted maximal effect.

| SMILES | Potency |
| --- | --- |
| CN(C)CCCNc1cc(O)c2ncccc2c1 | active: 3.98 µM |
| COc1ccc(NC(=O)c2ccc3c(c2)n(C)c(=O)n3C)cc1 | inconclusive: 31.6 µM [inhibitor, partial curve, poor fit] |
| CC(=O)C[C@H]1c2cc(C(F)(F)F)ccc2S(=O)(=O)N1c1ccccc1 | inconclusive: 4.47 µM [inhibitor, partial curve] |
| Cc1ccccc1NC(=O)CSc1n[nH]c(-c2ccccn2)n1 | inactive |
| Cc1oc(-c2ccc(Cl)cc2)nc1CN1CCC(C(=O)NCCCN2CCCC(C)C2)CC1 (stereo unspecified) | inconclusive: 12.6 µM [inhibitor, single point] |
| C/C(=N\NC(=S)Nc1ccc(C(C)C)cc1)c1ccc2c(c1)OCO2 | inactive |
| CCN1CCN(c2ccc(S(=O)(=O)N3CCCCC3)cc2NC(=O)Cc2ccc(Cl)c(Cl)c2)CC1 | inconclusive: 11.2 µM [inhibitor, single point] |
| CCOC(=O)CSC1=C(C#N)C(c2ccc(C)s2)CC(=O)N1 (stereo unspecified) | inconclusive: 3.16 µM [inhibitor, full curve] |
| Cc1ccc(S(=O)(=O)c2c(N)n(CCCO)c3nc4ccccc4nc23)cc1 | inactive |
| OC[C@H]1O[C@@H](n2cnc3c(Nc4ccccc4)ncnc32)[C@H](O)[C@@H]1O | inactive |
| O=C(N/N=C/c1cc(Cl)cc([N+](=O)[O-])c1O)c1cc(-c2ccccn2)nc2ccccc12 | inconclusive: 28.2 µM [inhibitor, single point] |
| O=C(C1CCN(S(=O)(=O)N2CCOCC2)CC1)N1CCN(c2ccc(F)cc2)CC1 | inactive |
| C/C(=N\NC(N)=S)C1=CCC2C3CC[C@H]4CC(O)CC[C@]4(C)C3CC[C@]12C (stereo partly specified) | inconclusive: 2.82 µM [inhibitor, single point] |
| O=C(c1ccco1)N1CCN(c2nc(C3CC3)nc3sc4c(c23)CCCC4)CC1 | inactive |
| CCCCCn1c(=O)[nH]c2cc(C(=O)NCCN(CC)CC)ccc2c1=O | inactive |
| C#Cc1ccc([C@H]2C=C(C(=O)O)O[C@@H](OCc3ccc(CO)cc3)C2)cc1 | inactive |
| CSc1cccc(NC(=S)N(Cc2ccc(C)cc2)Cc2cccnc2)c1 | inactive |
| Cc1ccc(-c2nc3c(c(=O)c4ccccc4n3C)c(=O)n2Cc2ccco2)cc1 | inactive |
| CCCCCn1cnc2c(sc3nc4c(cc32)CSC(C)(C)C4)c1=O | inactive |
| COC(=O)N1C(=O)[C@](c2ccccc2)(C(C)C)N1C(=O)OC | inconclusive: 10 µM [inhibitor, single point] |
| COc1ccc(Cl)cc1NC(=O)C/C(C)=N/NC(=O)c1ccccc1Cl | inactive |
| O=C(CSc1nc2cc(Cl)ccc2o1)NCCc1ccccc1 | inactive |
| CCc1ccccc1N1CCN(S(=O)(=O)c2cc(OC)ccc2OC)CC1 | inactive |

| SMILES | Potency |
| --- | --- |
| COc1ccc(C(=O)CSc2cc(C)nc3nc(C)nn23)cc1OC | inconclusive: 7.94 µM [inhibitor, partial curve] |
| CCOC(=O)C1=CN(Cc2ccco2)S(=O)(=O)N(CC)C1c1ccccc1 (stereo unspecified) | inconclusive: 28.2 µM [inhibitor, single point] |
| Cc1cc(C)cc(NC(=O)c2ccc3nc[nH]c3c2)c1 | inactive |
| COc1ccc(OC)c(-n2c(=S)[nH]c3c(sc(=S)n3-c3ccccc3)c2=O)c1 | inactive |
| CCn1c(Cc2ccccc2)nnc1SCC(=O)c1c(N)n(C2CC2)c(=O)[nH]c1=O | inconclusive: 12.6 µM [inhibitor, single point] |
| Cc1cc(Nc2nc3ccccc3nc2Cl)n(-c2ccc([N+](=O)[O-])cc2)n1 | inconclusive: 10 µM [inhibitor, partial curve, poor fit] |
| Cc1c(C(=O)N2CCOCC2)[nH]c2c1C(=O)CC(c1ccccc1Cl)C2 (stereo unspecified) | inconclusive: 2.51 µM [inhibitor, full curve] |
| O=C(Cn1cccc1C(=O)c1ccccc1)NCCc1ccc(Cl)cc1 | inactive |
| CCOc1ccc(CC2NCCc3cc(OCC)c(OCC)cc32)cc1OCC (stereo unspecified) | inconclusive: 11.2 µM [inhibitor, partial curve, poor fit] |
| Cc1nnc(NC(=O)CSc2nccn2-c2cccc(C)c2C)s1 | inconclusive: 3.16 µM [inhibitor, partial curve, poor fit] |
| Cc1c(Cl)cccc1NC(=O)C1CC2CCC1C2 (stereo unspecified) | inconclusive: 35.5 µM [inhibitor, partial curve, poor fit] |
| COc1ccc(Nc2nc(-c3sc(C)nc3C)cs2)cc1 | inconclusive: 1 µM [inhibitor, full curve, poor fit] |
| CC1=C(/C=C/C(C)=C/C=C/C(C)=C\C(=O)O)C(C)(C)CCC1 | inactive |
| CCN(CC)c1ccc(/C=N/Nc2nc3ccccc3[nH]2)cc1 | inconclusive: 3.55 µM [inhibitor, full curve, poor fit] |
| C[C@H]1CN([C@@H](C)CO)C(=O)Cc2cc(NC(=O)CCC(F)(F)F)ccc2O[C@H]1CN(C)S(=O)(=O)c1ccc(F)cc1 | inconclusive: 8.91 µM [inhibitor, partial curve, poor fit] |
| Cc1cccc(-n2cc(C(=O)O)c(=O)cc2C)c1 | inactive |
| Cc1[nH]c(=S)c(C#N)c(-c2ccco2)c1C(=O)N(C)C | inactive |
| Cc1ccc(S(=O)(=O)N(CC(=O)Nc2cccnc2)c2cccc(Br)c2)cc1 | inconclusive: 11.2 µM [inhibitor, single point] |
| CSc1ccc(Cl)c(C(=O)NNC(=O)c2csc(N3CCOCC3)n2)c1 | inactive |
| COc1ccc(C2CC(O)(c3ccccc3)Oc3cc(OC)c(OC)c(OC)c32)cc1 (stereo unspecified) | inconclusive: 10 µM [inhibitor, single point] |
| COc1ccc(C2NC(=S)NC(C)=C2C(=O)Nc2ccccn2)cc1 (stereo unspecified) | inconclusive: 12.6 µM [inhibitor, single point] |
| CC1CCCC(NC(=O)CSc2ncnc3ccccc23)C1C (stereo unspecified) | inconclusive: 8.91 µM [inhibitor, single point] |
| COc1ccc(S(=O)(=O)N2CCOCC2)cc1NC(=O)CN(C)CC(=O)Nc1cccc(F)c1 | inconclusive: 3.16 µM [inhibitor, partial curve, poor fit] |

Among those listed so far, two contain a cyano group.

| SMILES | Potency |
| --- | --- |
| CCOC(=O)CSC1=C(C#N)C(c2ccc(C)s2)CC(=O)N1 (stereo unspecified) | inconclusive: 3.16 µM [inhibitor, full curve] |
| Cc1[nH]c(=S)c(C#N)c(-c2ccco2)c1C(=O)N(C)C | inactive |
